Results deposited as PubChem BioAssay AID743121 (NCATS, 2013)
The deposit covers about 26,000 reagents; below is a part drawn at random. In the full data, 167 (0.63%) got an active call. 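Calls are per gene from RSA p-values that are not deposited; an individual active-marked siRNA can sensitise only weakly.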 Unmarked entries are inactive. Reagents against one gene are numbered here. Not all columns of the deposit are shown.

- Screen: 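Partners whose loss is lethal together with topoisomerase I blockade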 (primary screen)
- System: MDA-MB-231 cells, a human breast cancer line
- Knock-down reagent: single siRNA against human genes, 20 nM siRNA (0.8 pmol per well)
- Time to read-out: 120 h (drug added 48 h after transfection, read 72 h later)
- Challenge: camptothecin 20 nM (about EC30) for 72 h; vehicle 0.1% DMSO in parallel plates
- Read-out: 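Cell viability by ATP luminescence (CellTiter-Glo) as % of non-targeting siRNA wells, and the log2 ratio of viability without drug over viability with camptothecin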
- Scale: log2 vehicle/camptothecin viability: higher = stronger sensitisation to camptothecin
- Hit rule: 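Active genes have an RSA gene-level p-value below 0.001, computed from the ratios of their separate siRNAs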

With ABCA3 (ATP binding cassette subfamily A member 3) #1, what does the deposit list?
log2 vehicle/camptothecin viability: 0.079

Which result is listed for ABCA3 (ATP binding cassette subfamily A member 3) #2?
log2 vehicle/camptothecin viability: -0.0501

With ABCA3 (ATP binding cassette subfamily A member 3) #3, how do the results read?
log2 vehicle/camptothecin viability: 0.178

What did the screen give for ABCA3 (ATP binding cassette subfamily A member 3) #4?
log2 vehicle/camptothecin viability: -0.0386

How did the screen score AKT3 (AKT serine/threonine kinase 3) #1?
log2 vehicle/camptothecin viability: -0.138

For AKT3 (AKT serine/threonine kinase 3) #2, what was measured?
log2 vehicle/camptothecin viability: -0.167

Which result is listed for AKT3 (AKT serine/threonine kinase 3) #3?
log2 vehicle/camptothecin viability: -0.259

Which result is listed for AKT3 (AKT serine/threonine kinase 3) #4?
log2 vehicle/camptothecin viability: -0.216

For CACHD1 (cache domain containing 1) #1, what does the deposit list?
log2 vehicle/camptothecin viability: 0.531

How did the screen score CACHD1 (cache domain containing 1) #2?
log2 vehicle/camptothecin viability: -0.426

What did the screen give for CACHD1 (cache domain containing 1) #3?
log2 vehicle/camptothecin viability: -0.242

How did the screen score CACHD1 (cache domain containing 1) #4?
log2 vehicle/camptothecin viability: -0.311

What is on record for TAF10 (TATA-box binding protein associated factor 10) #1?
log2 vehicle/camptothecin viability: 0.178

With TAF10 (TATA-box binding protein associated factor 10) #2, what does the deposit list?
log2 vehicle/camptothecin viability: -0.234

For TAF10 (TATA-box binding protein associated factor 10) #3, what does the deposit list?
log2 vehicle/camptothecin viability: -0.453

What is on record for CA7 (carbonic anhydrase 7) #1?
log2 vehicle/camptothecin viability: 0.0163

With CA7 (carbonic anhydrase 7) #2, how do the results read?
log2 vehicle/camptothecin viability: 0.483

How did the screen score CA7 (carbonic anhydrase 7) #3?
log2 vehicle/camptothecin viability: 0.14

With CA7 (carbonic anhydrase 7) #4, how do the results read?
log2 vehicle/camptothecin viability: -0.274

What is on record for CXCR4 (C-X-C motif chemokine receptor 4) #1?
log2 vehicle/camptothecin viability: -0.397

For CXCR4 (C-X-C motif chemokine receptor 4) #2, how do the results read?
log2 vehicle/camptothecin viability: -0.397

With CXCR4 (C-X-C motif chemokine receptor 4) #3, how do the results read?
log2 vehicle/camptothecin viability: -0.292

How did the screen score CXCR4 (C-X-C motif chemokine receptor 4) #4?
log2 vehicle/camptothecin viability: 0.154

With PTPN3 (protein tyrosine phosphatase non-receptor type 3) #1, how do the results read?
log2 vehicle/camptothecin viability: -0.389

For PTPN3 (protein tyrosine phosphatase non-receptor type 3) #2, how do the results read?
log2 vehicle/camptothecin viability: -0.538

With PTPN3 (protein tyrosine phosphatase non-receptor type 3) #3, what was measured?
log2 vehicle/camptothecin viability: -0.124

How did the screen score PTPN3 (protein tyrosine phosphatase non-receptor type 3) #4?
log2 vehicle/camptothecin viability: -0.416

With DUSP8 (dual specificity phosphatase 8) #1, what was measured?
log2 vehicle/camptothecin viability: 0.0758

Which result is listed for DUSP8 (dual specificity phosphatase 8) #2?
log2 vehicle/camptothecin viability: -0.175

With DUSP8 (dual specificity phosphatase 8) #3, what does the deposit list?
log2 vehicle/camptothecin viability: -0.187

How did the screen score DUSP8 (dual specificity phosphatase 8) #4?
log2 vehicle/camptothecin viability: -0.0538

Which result is listed for CCL22 (C-C motif chemokine ligand 22) #1?
log2 vehicle/camptothecin viability: -0.134

With CCL22 (C-C motif chemokine ligand 22) #2, how do the results read?
log2 vehicle/camptothecin viability: -0.157

For CCL22 (C-C motif chemokine ligand 22) #3, how do the results read?
log2 vehicle/camptothecin viability: -0.0464

With OR1D2 (olfactory receptor family 1 subfamily D member 2) #1, how do the results read?
log2 vehicle/camptothecin viability: 0.987

What is on record for OR1D2 (olfactory receptor family 1 subfamily D member 2) #2?
log2 vehicle/camptothecin viability: -0.0456

For OR1D2 (olfactory receptor family 1 subfamily D member 2) #3, what was measured?
log2 vehicle/camptothecin viability: -0.413

With OR1D2 (olfactory receptor family 1 subfamily D member 2) #4, how do the results read?
log2 vehicle/camptothecin viability: -0.15

What is on record for OR1D2 (olfactory receptor family 1 subfamily D member 2) #5?
log2 vehicle/camptothecin viability: -0.174

For OR1D2 (olfactory receptor family 1 subfamily D member 2) #6, what does the deposit list?
log2 vehicle/camptothecin viability: -0.633
